Reference: US6660837
No constants are given. Whether binding was seen depends on the method and setting. Binding seen in cells or lysates may run through a third protein. Some binding calls cover weakened binding; strength is not graded here. For some of these results: Sequences can lack the tags named with a protein.

Amino acid sequences for entries named in this document (tags omitted). A change or cut given only in a name is not applied to a line headed by its entry. Chains listed by the source or under a name are the forms on record and can include a tag or linker. Residues count along the entry.
UniProt P12814, residues 479-600: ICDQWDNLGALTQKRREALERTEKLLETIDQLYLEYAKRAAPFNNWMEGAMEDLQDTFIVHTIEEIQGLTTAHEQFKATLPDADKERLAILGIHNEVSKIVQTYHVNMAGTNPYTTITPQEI
UniProt P35609: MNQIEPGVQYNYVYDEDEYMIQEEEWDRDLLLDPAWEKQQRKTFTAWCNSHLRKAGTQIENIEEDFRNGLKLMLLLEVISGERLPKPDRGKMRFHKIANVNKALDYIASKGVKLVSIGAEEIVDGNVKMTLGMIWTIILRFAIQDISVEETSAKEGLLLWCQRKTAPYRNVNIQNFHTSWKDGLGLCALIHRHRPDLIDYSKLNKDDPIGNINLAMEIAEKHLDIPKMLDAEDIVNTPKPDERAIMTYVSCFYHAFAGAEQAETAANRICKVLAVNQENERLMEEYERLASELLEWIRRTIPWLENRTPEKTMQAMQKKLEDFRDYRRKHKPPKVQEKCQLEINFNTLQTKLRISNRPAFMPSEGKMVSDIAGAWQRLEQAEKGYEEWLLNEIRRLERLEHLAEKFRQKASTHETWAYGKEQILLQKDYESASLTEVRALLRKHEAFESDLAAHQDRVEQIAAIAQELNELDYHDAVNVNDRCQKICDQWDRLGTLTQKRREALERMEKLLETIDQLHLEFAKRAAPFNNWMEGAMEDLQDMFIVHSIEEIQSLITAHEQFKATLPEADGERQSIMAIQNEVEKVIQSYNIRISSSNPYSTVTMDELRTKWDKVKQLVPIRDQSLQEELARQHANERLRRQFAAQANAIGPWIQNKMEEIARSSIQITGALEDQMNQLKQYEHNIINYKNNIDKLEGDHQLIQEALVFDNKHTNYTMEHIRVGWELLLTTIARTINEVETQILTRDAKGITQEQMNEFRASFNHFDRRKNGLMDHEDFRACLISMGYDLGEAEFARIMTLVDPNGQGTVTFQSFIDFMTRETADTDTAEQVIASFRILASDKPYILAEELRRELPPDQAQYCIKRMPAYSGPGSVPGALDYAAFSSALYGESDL
HA-tagged HuActSkl (amino acid sequence 333-894), pHA-Act, expressed in COS7 cells: residues 333-894 of P35609
GST-HuActSkl (423-653): residues 423-653 of P35609
GST-HuActSkl (486-607), spectrin-like repeat 3 of HuActSkl: residues 486-607 of P35609
GST-HuActSkl (653-837): residues 653-837 of P35609

Columns and labels:
[1] = biological target: GST-PKN-N (GST fused to the amino-terminal region of PKN, amino acid sequence 1-540) (human) (UniProt Q16512); experiment: GST pull-down of 35S-labeled full-length HuActSkl with GST-PKNN1, no PI4,5P2
[2] = biological target: GST-PKN-N (GST fused to the amino-terminal region of PKN, amino acid sequence 1-540) (human) (UniProt Q16512); experiment: GST pull-down of 35S-labeled full-length HuActSkl with GST-PKNN1, 10 µM PI4,5P2
[3] = biological target: GST-HuActNm (amino acid sequence 479-600), spectrin-like repeat 3 of HuActNm (human) (UniProt P12814); experiment: GST pull-down of 35S-labeled in vitro translated PKNN2
[4] = biological target: T1, GST-NFMhr (GST fused to the head-rod domain, amino acid sequence 1-411, of human NFM) (human) (UniProt P07197); experiment: as above
T1 sequence (looked up): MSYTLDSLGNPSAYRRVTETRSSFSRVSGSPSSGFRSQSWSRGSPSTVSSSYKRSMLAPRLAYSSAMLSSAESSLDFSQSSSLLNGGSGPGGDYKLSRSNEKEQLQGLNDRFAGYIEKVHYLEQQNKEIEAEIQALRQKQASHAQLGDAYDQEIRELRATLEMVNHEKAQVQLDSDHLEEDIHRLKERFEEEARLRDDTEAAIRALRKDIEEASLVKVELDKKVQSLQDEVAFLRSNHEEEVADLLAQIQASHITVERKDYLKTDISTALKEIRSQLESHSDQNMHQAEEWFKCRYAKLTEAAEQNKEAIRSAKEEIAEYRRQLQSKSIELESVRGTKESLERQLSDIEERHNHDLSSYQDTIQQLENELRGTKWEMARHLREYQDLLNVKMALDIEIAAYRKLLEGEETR

[5] = biological target: GST-HuActNm (amino acid sequence 479-600), spectrin-like repeat 3 of HuActNm (human) (UniProt P12814); experiment: GST pull-down of 35S-labeled PKNN2 (FIG. 46, repeat 3 of HuActNm)
[6] = biological target: GST-HuActSkl (486-607), spectrin-like repeat 3 of HuActSkl (human) (UniProt P35609); experiment: GST pull-down of 35S-labeled PKNN2 (FIG. 46, repeat 3 of HuActSkl)
[7] = biological target: T2, GST-NFL#21 (GST fused to the amino acid sequence 1-349 of human NFL, head-rod domain) (human) (UniProt P07196); experiment: GST pull-down of 35S-labeled in vitro translated protein, autoradiography
T2 sequence (looked up): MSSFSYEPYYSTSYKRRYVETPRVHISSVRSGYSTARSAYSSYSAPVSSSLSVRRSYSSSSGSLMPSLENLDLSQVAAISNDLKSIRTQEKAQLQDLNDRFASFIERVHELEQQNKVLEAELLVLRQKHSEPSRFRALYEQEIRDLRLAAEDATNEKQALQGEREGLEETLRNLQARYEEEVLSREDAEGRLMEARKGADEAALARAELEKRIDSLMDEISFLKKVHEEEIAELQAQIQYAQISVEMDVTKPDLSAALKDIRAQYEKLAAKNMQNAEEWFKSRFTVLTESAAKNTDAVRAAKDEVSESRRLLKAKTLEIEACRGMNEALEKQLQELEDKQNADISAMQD

[8] = biological target: GST-HuActSkl (423-653) (human) (UniProt P35609); experiment: GST pull-down of 35S-labeled protein; washes with 0.5% Triton X-100/0.5 M NaCl
[9] = biological target: GST-HuActSkl (486-607), spectrin-like repeat 3 of HuActSkl (human) (UniProt P35609); experiment: as above
[10] = biological target: GST-HuActSkl (653-837) (human) (UniProt P35609); experiment: as above
[11] = biological target: GST-HuActSkl (423-653) (human) (UniProt P35609); experiment: GST pull-down of 35S-labeled protein (lane 18)
[12] = biological target: GST-HuActSkl (653-837) (human) (UniProt P35609); experiment: GST pull-down of 35S-labeled protein (lane 19)
[13] = biological target: HA-tagged HuActSkl (amino acid sequence 333-894), pHA-Act, expressed in COS7 cells (human) (UniProt P35609); experiment: co-immunoprecipitation with 12CA5 from co-transfected COS7 cells, immunoblot with αC6

Measured: binding

35S-labeled in vitro translated full-length HuActSkl (from UniProt P35609 1-894)
binds: [1] | [2]

PKNN2 (N-terminal region of PKN, amino acid sequence 1-474), 35S-labeled, in vitro translated (from UniProt Q16512 1-474)
not listed: [1] | [2] | [11] | [12] | [13]
binds: all other assays above

PKNΔBal (amino acid sequence 136-474 of PKN), 35S-labeled, in vitro translated (from UniProt Q16512 136-474)
binds: [11] | [12]

full-length human PKN expressed from pMhPKN3 in COS7 cells (from UniProt Q16512 1-942) (enzyme)
binds: [13]
